Experimental data from article PMC3355077.
These are yes or no findings as the source states them, for the method shown. In cells and extracts the contact can be indirect. Here binding means that the protein was enriched with, or labelled near, the bait; the list need not be complete.

Chains of the proteins cited; added tags and fusions are not shown. Lines headed by an entry give the natural chain unless they say otherwise; changes in a name come on top. A line that says so, or that is headed by a name, gives the form on record, which may keep a tag or linker.
Psip1/p52 (endogenous) (mouse (endogenous in NIH 3T3 and MEFs)) (Q99JF8, form named): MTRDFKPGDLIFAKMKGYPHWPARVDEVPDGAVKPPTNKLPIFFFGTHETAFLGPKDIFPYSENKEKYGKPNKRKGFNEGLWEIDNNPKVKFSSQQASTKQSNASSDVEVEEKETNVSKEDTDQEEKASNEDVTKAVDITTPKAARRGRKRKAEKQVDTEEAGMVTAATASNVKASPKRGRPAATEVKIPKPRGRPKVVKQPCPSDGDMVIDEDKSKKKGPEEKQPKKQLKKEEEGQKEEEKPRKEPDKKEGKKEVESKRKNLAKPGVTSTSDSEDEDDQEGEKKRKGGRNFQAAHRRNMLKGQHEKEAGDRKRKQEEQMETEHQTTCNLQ

Tests used:
[1] = molecular target: Psip1/p52 (endogenous) (mouse (endogenous in NIH 3T3 and MEFs)) (UniProt Q99JF8); experiment: affinity purification with mass spectrometry; A300-847 IP from NIH 3T3 nuclear extract, washes with 200 mM KCl; gel bands analysed by MS/MS (Mascot)
[2] = molecular target: Psip1/p52 (endogenous) (mouse (endogenous in NIH 3T3 and MEFs)) (UniProt Q99JF8); experiment: affinity purification with mass spectrometry; A300-847 IP from wild-type MEF nuclear extract; gel region of 25-40 kDa analysed by mass spectrometry

Binder	binding [1]	binding [2]
Srrm 1 (protein, UniProt Q52KI8 1-946) MDAGFFRGTSAEQDNRFSNKQKKLLKQLKFAECLEKKVDMSKVNLEVIKPWITKRVTEILGFEDDVVIEFIFNQLEVKNPDSKMMQINLTGFLNGKNAREFMGELWPLLLSAQENIAGIPSAFLELKKEEIKQRQIEQEKLASLKKQDEDKDKRDKEEKESSREKRERSRSPRRRKSRSPSPRRRSSPVRRERKRSHSRSPRHRTKSRSPSPAPEKKEKSPELPEPSVRMKDSSVQEATSTSDILKAPKPEPVPEPKEPSPEKNSKKEKEKTRPRSRSRSKSRSRTRSRSPSHTRPRRRHRSRSRSYSPRRRPSPRRRPSPRRRTPPRRMPPPPRHRRSRSPGRRRRRSSASLSGSSSSSSSSRSRSPPKKPPKRTSSPPRKTRRLSPSASPPRRRHRPSSPATPPPKTRHSPTPQQSNRTRKSRVSVSPGRTSGKVTKHKGTEKRESPSPAPKPRKVELSESEEDKGSKMAAADSVQQRRQYRRQNQQSSSDSGSSSTSEDERPKRSHVKNGEVGRRRRHSPSRSASPSPRKRQKETSPRMQMGKRWQSPVTKSSRRRRSPSPPPARRRRSPSPAPPPPPPPPPPRRRRSPTPPPRRRTPSPPPRRRSPSPRRYSPPIQRRYSPSPPPKRRTASPPPPPKRRASPSPPPKRRVSHSPPPKQRSPTVTKRRSPSLSSKHRKGSSPGRSTREARSPQPNKRHSPSPRPRAPQTSSPPPVRRGASASPQGRQSPSPSTRPIRRVSRTPEPKKIKKTAMATQRNIRRVSKSPKADSLSRAASPSPQSVRRVSSSRSVSGSPEPAAKKPPAPPSPVQSQSPSTNWSPAVPAKKAKSPTPSLSPARNSDQEGGGKKKKKKKDKKHKKDKKHKKHKKHKKEKAVTIATPATAAPAAVSAATTTSAQEEPAAAPEPRKETESEAEDDNLDDLERHLREKALRSMRKAQVSPQS	binds	
LAS1L (protein, UniProt A2BE28 1-776) MDRVWRAWDGQSFKENQPESPSARGIVVSWLSRAEWEQVTVYLFCDDHKLQQYALNRITVWRSRLGNELPLAVASTADLVRCKLIDAAGTLGTDELRLLYGMALVRFVNLISERKTKCSNLPLKYLAQEVNIPDWIVELRHNLTHKKMPHINECRRGCYFVLNWLQKTYWSRQLEGSLKETWELDEDQLDAEDPEEEEREIIADDVLEEIPEPQDDDKDEELAVEDDANTKGNEEVASHPEPSSRHKELYEKARELLVSYEEEQFKVLEKHRHLLQAIKVWNNLSPRVQCILEELKSISWENRDAVLDAFLDDGFLIPTFEQLAALQIEYEDGQTEVQKGEVTEPNSHKNIDLNEVLVPKPFSQFWQPLLRGLHSQTFTQALLERMFSELSTVGSTGIRPTYILRWTVELIVANTKTGRNARRFSASQWEARKSWRLFNCSATLDWPQVIESCLGSPCWASPQLLQVVFKAMGQVLPDEEQEKLLRVCSIYTQNGENGLAKAIEGSSSSSTGKAPYTLDTLHEDLQPPGTNCESEESIQQKEQGNLKDVKQEEKKENEEEEKEEEEMEEEEEEEEEEKEEEEEEQEQEEHQEEEQEEEEEEENQKVFQDQMEADVEESDDVEEEEEVDDEEEDEDDDYDDDEEEDRMEVGAFSLAQGSSVFENTRTTSRKREALQGSAWQVSSEDVRWGTFPLGRLPGQTEDPAELMLDNYDTMYLLDQPVIEHRLEPQKSKSSTLSLCCGGSNTNSSSSSSSGNMEGLLWNQGQMHGLKAGLQLF	binds	

Now from value to binder:

binding [1]	binding [2]	Binder
binds		Srsf7 (protein, UniProt Q8BL97 1-267) MRSSARGRPLQAATAFFLSLFFFLRRFERGFWLWGGDSETKVYVGNLGTGAGKGELERAFSYYGPLRTVWIARNPPGFAFVEFEDPRDAEDAVRGLDGKVICGSRVRVELSTGMPRRSRFDRPPARRPFDPNDRCYECGEKGHYAYDCHRYSRRRRSRSRSRSHSRSRGRRYSRSRSRSRGRRSRSASPRRSRSVSLRRSRSASLRRSRSGSIIGSRYFQSRSRSRSRSRSISRPRSSRSKSRSPSPKRSRSPSGSPHRSASPERMD
binds	binds	Srsf5 (protein, UniProt O35326 1-269) MSGCRVFIGRLNPAAREKDVERFFKGYGRIRDIDLKRGFGFVEFEDPRDADDAVYELDGKELCSERVTIEHARARSRGGRGRGRYSDRFSSRRPRNDRRNAPPVRTENRLIVENLSSRVSWQDLKDFMRQAGEVTFADAHRPKLNEGVVEFASYGDLKNAIEKLSGKEINGRKIKLIEGSKRHRSRSRSRSRTRSSSRSRSRSRSRRSKSYSRSRSRSRSRSKSRSGSRSPVPEKSQKRGSSSRSKSPASVDRQRSRSRSRSRSVDSGN
